From the supplement of paper PMC10849652
Some of the results follow. Residues, ends and D or L forms follow the SMILES beside them. *: point of attachment. Cbz = O=C(OCc1ccccc1)*

Amino acid sequences for entries named in this document (tags omitted). A change or cut given only in a name is not applied to a line headed by its entry.
UniProt Q9Y4Y9: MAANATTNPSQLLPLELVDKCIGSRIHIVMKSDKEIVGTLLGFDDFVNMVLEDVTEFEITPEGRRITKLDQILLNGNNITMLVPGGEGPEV
UniProt Q8WV07: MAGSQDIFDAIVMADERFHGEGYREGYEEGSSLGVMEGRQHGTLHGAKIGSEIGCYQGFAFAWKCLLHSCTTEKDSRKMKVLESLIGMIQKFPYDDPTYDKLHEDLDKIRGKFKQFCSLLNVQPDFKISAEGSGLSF
UniProt Q969L4: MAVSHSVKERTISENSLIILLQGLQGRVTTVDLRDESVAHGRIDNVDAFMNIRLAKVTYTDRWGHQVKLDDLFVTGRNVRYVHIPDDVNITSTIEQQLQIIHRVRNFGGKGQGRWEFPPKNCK
UniProt Q12851: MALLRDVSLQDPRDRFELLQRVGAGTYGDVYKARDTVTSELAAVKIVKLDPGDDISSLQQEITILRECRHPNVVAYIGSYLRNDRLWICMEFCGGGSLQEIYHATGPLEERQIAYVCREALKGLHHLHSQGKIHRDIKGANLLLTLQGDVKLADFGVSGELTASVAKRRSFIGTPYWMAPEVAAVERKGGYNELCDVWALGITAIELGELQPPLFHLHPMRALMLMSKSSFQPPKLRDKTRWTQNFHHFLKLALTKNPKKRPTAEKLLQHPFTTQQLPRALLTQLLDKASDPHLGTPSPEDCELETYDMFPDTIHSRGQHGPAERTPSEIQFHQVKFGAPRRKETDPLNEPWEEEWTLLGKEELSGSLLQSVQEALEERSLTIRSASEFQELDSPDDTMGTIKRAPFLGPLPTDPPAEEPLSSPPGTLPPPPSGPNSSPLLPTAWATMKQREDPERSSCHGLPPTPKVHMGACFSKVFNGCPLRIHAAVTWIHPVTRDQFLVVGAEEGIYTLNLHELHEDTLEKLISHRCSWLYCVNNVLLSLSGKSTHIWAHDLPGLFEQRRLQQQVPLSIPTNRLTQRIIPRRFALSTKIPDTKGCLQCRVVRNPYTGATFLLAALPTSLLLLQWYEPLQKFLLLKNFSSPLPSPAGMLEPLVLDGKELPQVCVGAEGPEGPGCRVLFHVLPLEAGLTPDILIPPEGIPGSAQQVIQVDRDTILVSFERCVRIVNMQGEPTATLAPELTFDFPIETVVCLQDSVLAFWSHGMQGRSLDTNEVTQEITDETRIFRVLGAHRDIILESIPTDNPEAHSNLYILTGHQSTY
UniProt O14733: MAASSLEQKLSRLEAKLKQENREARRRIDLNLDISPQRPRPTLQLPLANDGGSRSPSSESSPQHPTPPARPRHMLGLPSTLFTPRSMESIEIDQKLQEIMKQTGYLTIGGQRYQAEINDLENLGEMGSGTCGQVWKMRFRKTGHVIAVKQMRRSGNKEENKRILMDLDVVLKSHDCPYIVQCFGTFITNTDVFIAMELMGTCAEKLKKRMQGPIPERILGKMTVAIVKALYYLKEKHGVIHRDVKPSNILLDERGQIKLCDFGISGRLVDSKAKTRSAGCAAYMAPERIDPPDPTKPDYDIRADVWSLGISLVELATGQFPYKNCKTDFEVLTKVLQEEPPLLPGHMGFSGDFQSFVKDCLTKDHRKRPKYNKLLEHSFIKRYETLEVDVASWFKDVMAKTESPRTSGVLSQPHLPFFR
UniProt P45983: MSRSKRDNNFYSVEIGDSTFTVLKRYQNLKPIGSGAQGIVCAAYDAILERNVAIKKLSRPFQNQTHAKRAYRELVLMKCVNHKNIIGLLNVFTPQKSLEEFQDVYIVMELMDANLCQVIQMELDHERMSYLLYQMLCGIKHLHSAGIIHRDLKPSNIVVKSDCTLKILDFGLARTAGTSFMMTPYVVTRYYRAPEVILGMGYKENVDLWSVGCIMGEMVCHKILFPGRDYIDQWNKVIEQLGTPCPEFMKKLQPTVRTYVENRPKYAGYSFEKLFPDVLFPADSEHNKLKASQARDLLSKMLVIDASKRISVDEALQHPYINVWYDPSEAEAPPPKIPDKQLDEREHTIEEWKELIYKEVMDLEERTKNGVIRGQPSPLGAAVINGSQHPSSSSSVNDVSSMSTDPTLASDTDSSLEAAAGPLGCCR
UniProt P51884: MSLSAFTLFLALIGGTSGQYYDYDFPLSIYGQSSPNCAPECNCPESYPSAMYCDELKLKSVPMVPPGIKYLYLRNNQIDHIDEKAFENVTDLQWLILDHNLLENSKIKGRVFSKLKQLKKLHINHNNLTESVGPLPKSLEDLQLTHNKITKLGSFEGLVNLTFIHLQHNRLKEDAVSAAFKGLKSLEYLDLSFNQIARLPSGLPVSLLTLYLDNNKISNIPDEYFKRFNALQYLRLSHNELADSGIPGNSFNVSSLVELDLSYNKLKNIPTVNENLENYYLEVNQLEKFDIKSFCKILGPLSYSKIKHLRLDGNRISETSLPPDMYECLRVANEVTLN
UniProt Q86V48: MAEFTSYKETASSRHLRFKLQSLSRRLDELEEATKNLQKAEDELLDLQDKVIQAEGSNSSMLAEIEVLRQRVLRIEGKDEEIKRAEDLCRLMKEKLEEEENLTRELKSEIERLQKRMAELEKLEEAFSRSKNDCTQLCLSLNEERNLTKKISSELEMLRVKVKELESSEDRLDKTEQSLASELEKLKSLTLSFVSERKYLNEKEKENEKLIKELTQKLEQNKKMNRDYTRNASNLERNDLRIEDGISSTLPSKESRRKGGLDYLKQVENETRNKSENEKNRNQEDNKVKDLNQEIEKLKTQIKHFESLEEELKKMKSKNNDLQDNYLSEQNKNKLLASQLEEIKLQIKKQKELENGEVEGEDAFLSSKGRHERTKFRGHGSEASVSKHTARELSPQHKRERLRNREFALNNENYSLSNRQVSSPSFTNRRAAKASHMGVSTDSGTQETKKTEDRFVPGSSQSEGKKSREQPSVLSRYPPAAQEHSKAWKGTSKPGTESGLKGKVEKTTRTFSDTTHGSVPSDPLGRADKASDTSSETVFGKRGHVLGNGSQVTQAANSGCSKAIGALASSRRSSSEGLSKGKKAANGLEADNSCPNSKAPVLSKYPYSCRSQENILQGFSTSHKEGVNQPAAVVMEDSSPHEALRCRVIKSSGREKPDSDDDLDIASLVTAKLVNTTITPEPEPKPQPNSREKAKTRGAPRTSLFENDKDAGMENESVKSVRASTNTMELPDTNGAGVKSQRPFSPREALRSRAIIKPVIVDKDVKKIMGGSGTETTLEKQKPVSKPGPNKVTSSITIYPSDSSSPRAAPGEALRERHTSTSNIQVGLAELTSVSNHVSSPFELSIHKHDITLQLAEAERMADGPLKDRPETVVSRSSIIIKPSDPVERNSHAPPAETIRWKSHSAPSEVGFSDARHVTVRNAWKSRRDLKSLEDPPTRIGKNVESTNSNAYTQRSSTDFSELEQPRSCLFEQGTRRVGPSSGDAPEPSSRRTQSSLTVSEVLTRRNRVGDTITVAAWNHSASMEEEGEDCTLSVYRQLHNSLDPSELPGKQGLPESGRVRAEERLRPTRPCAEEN
UniProt P49006: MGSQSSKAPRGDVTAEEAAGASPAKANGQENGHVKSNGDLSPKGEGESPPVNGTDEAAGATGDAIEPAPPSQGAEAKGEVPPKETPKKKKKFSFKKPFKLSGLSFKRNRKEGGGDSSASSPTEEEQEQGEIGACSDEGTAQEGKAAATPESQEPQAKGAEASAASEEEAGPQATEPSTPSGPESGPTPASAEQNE
UniProt Q9H089: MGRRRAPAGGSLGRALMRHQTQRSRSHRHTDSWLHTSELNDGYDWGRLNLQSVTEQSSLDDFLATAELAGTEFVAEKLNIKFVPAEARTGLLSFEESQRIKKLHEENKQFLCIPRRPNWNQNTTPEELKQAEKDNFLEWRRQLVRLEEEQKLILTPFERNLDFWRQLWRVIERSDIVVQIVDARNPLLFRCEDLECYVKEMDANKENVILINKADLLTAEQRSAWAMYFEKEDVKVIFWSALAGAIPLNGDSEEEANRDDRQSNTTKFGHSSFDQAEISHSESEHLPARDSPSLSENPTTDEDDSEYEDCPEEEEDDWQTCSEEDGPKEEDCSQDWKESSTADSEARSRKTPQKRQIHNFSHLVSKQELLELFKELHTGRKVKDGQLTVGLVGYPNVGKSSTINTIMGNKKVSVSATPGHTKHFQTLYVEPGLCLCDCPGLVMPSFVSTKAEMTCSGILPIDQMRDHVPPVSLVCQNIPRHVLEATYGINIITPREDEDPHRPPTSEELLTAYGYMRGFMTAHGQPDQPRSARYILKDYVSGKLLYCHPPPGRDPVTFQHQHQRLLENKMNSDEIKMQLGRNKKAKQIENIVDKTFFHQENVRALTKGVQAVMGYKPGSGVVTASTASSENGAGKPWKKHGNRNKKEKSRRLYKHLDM
UniProt Q5TCQ9: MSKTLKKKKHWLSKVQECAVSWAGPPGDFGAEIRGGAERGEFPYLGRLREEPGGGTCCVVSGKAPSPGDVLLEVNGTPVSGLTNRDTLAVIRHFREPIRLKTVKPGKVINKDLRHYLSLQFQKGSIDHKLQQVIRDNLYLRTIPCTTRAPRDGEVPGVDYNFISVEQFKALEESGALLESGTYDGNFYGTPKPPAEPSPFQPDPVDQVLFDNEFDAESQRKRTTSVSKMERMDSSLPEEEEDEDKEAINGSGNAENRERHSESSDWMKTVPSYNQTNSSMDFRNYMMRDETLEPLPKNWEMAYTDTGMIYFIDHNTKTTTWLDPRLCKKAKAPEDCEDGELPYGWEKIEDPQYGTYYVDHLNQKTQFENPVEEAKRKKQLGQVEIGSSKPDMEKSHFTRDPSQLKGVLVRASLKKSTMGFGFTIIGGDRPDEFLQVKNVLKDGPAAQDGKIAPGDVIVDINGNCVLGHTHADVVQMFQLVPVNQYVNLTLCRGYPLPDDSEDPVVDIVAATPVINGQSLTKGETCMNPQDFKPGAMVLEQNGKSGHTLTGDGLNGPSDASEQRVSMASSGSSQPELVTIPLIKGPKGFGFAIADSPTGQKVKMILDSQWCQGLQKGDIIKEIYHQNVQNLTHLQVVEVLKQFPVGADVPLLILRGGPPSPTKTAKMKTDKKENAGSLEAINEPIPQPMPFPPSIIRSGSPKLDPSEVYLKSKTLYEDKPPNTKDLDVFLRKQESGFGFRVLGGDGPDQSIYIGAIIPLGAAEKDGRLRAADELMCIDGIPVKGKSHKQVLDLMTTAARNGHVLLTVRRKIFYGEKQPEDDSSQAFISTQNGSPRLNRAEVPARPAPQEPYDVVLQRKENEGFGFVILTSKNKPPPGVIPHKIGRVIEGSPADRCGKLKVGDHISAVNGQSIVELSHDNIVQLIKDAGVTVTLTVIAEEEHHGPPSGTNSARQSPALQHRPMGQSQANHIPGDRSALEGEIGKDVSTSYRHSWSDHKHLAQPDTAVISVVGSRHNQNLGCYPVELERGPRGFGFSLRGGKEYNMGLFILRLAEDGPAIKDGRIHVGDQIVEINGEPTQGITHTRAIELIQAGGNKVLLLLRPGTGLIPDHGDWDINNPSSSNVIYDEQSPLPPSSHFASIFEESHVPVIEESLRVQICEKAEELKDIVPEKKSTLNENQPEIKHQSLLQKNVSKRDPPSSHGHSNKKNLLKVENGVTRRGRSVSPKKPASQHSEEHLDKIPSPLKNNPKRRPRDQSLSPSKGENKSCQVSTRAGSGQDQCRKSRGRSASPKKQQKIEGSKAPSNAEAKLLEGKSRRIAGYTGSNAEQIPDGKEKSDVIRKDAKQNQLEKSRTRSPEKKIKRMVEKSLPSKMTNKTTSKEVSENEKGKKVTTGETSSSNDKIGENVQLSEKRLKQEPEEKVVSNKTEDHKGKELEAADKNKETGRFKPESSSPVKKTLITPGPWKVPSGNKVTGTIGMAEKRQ
UniProt P49137, whole entry, looked up: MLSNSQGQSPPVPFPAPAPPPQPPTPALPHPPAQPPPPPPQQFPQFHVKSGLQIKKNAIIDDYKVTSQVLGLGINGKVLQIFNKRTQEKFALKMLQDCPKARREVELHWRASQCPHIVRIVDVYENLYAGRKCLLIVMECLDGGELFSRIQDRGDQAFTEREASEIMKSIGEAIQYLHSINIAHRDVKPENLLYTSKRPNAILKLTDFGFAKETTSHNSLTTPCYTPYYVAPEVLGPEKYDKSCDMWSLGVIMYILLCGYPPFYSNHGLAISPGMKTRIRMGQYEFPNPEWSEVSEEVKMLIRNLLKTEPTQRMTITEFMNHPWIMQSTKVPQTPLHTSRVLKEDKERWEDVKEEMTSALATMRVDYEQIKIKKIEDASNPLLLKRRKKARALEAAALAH

Assays:
Assay in all cases: log2 fold change, soluble protein after heating vs DMSO (PISA); higher = thermal stabilisation; K562 cells, 10 uM, 30 min; active = over 0.2 and 3.5 SD of the protein, either way, in both replicates (recomputed)
[1] = compound: C1COCCN1CCN2C3=CC=CC=C3N=C2NC(=O)C4=CC(=CC=C4)[N+](=O)[O-] [IRAK-1-4 Inhibitor I]
Outline: (§1)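 K562 cells (2×10^6 cells/mL) were treated with 10 μM compound for 30 min, and aliquots were heated for 3 min over 48°C-58°C. Pooled aliquots were extracted in PBS with 0.5% NP-40 at 4°C, and the supernatant after 21,000xg for 90 min was measured by TMTpro 16plex LC-MS/MS with channel sums equalised. Reported thermal stability, relative to control samples and from duplicates, is a log2 fold change.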

[2] = compound: C=CC(=O)N1CCC[C@@H](n2nc(-c3ccc(Oc4ccccc4)cc3)c3c(N)ncnc32)C1 [ibrutinib]
Outline: as §1

[3] = compound: CC(C)(C)Cn1c(N)nc2ccc(-c3[nH]c(C(C)(C)C)nc3-c3ccc(F)cc3)nc21 [ralimetinib]
Outline: as §1

[4] = compound: CC(C)(O)CC(=O)NCCn1ccc2ncnc(Nc3ccc(Oc4cccc(C(F)(F)F)c4)c(Cl)c3)c21
Outline: as §1

[5] = compound: CC(C)C1=C2N=C(C=C(N2N=C1)NCC3=CC=CC=C3)NCCCCCCN
Outline: as §1

[6] = compound: CC(C)C[C@@H](C=O)NC(=O)[C@H](CC(C)C)NC(=O)[C@H](CC(C)C)NC(=O)OCc1ccccc1
Outline: as §1

[7] = compound: CC(C)N(C[C@H]1O[C@@H](n2cnc3c(N)ncnc32)[C@H](O)[C@@H]1O)[C@H]1C[C@@H](CCc2nc3cc(C(C)(C)C)ccc3[nH]2)C1 [pinometostat]
Outline: as §1

[8] = compound: CC1=C(C(CC(=O)N1)C2=CC=C(C=C2)C(F)(F)F)C(=O)NC3=C(C=C4C(=C3)C=NN4)F
Outline: as §1

[9] = compound: CC1=C(C2=C(C=C1)C(=O)C3=CC=CC=C3N2CCCN)C
Outline: as §1

[10] = compound: CC1=C(C=C(C=C1)NC(=O)C2=CC(=CC=C2)C(C)(C)C#N)NC3=CC4=C(C=C3)N=CN(C4=O)C
Outline: as §1

[11] = compound: CC1=C(C=C(C=C1)NC(=O)C2=CC(=CC=C2)N(C)C)NC(=O)C3=CC=C(C=C3)O
Outline: as §1

[12] = compound: CC1=NC(=CC=C1)C2=C(N=C(N2)C(C)(C)C)C3=CC4=NC=CN=C4C=C3
Outline: as §1

[13] = compound: CCCCN(Cc1ccc(C(=O)NO)cc1)C(=O)Nc1ccccc1 [Nexturastat A]
Outline: as §1

[14] = compound: CCCc1cc(C)[nH]c(=O)c1CNC(=O)c1cc(-c2ccnc(N3CCN(C)CC3)c2)cc2c1cnn2C(C)C
Outline: as §1

[15] = compound: CCN(CC)Cc1ccc2cc(COC(=O)Nc3ccc(C(=O)NO)cc3)ccc2c1 [givinostat]
Outline: as §1

[16] = compound: CCN(CCCOc1ccc2c(Nc3cc(CC(=O)Nc4cccc(F)c4)[nH]n3)ncnc2c1)CCOP(=O)(O)O [barasertib]
Outline: as §1

[17] = compound: CC(=O)c1cnc2ccc(-c3cc(Cl)c(O)c(Cl)c3)nc2c1N[C@H]1CC[C@H](CN(C)C)CC1
Outline: as §1

[18] = compound: CC1=CC=C(C=C1)SC2=C3C=C(SC3=CN=C2)C(=O)N
Outline: as §1

[19] = compound: CCCS(=O)(=O)Nc1ccc(F)c(C(=O)c2c[nH]c3ncc(-c4ccc(Cl)cc4)cc23)c1F [vemurafenib]
Outline: as §1

[20] = compound: CCCS(=O)(=O)Nc1ccc(F)c(C(=O)c2c[nH]c3ncc(Cl)cc23)c1F
Outline: as §1

Target | log2 fold change [1] | log2 fold change [2] | log2 fold change [3] | log2 fold change [4] | log2 fold change [5] | log2 fold change [6] | log2 fold change [7] | log2 fold change [8] | log2 fold change [9] | log2 fold change [10] | log2 fold change [11] | log2 fold change [12] | log2 fold change [13] | log2 fold change [14] | log2 fold change [15] | log2 fold change [16] | log2 fold change [17] | log2 fold change [18] | log2 fold change [19] | log2 fold change [20]
LSM5 (UniProt Q9Y4Y9) | inactive: 0.136 | inactive: -0.042 | inactive: 0.164 | inactive: 0.303 | inactive: 0.187 | inactive: 0.193 | inactive: 0.086 | inactive: 0.092 | inactive: -0.02 | inactive: 0.112 | inactive: -0.063 | inactive: -0.071 | inactive: 0.042 | inactive: -0.262 | inactive: -0.284 | inactive: 0.194 | – | – | – | –
MARK3 (UniProt P27448) | inactive: -0.071 | inactive: -0.026 | inactive: 0.014 | inactive: -0.035 | inactive: -0.171 | inactive: 0.084 | inactive: 0.156 | – | inactive: 0.026 | inactive: -0.017 | inactive: 0.02 | inactive: -0.029 | inactive: 0.074 | inactive: 0.077 | inactive: 0.038 | inactive: 0.023 | active: -2.03 | inactive: 0.067 | inactive: 0 | inactive: 0.004
LTO1 (UniProt Q8WV07) | inactive: -0.028 | inactive: 0.037 | inactive: 0.028 | inactive: 0.011 | inactive: -0.017 | inactive: 0 | inactive: -0.028 | – | inactive: 0.041 | inactive: 0.021 | inactive: -0.042 | inactive: -0.009 | inactive: 0.245 | inactive: 0 | inactive: -0.121 | inactive: -0.04 | inactive: 0.061 | inactive: -0.021 | inactive: 0.101 | inactive: 0.027
LSM10 (UniProt Q969L4) | inactive: -0.039 | inactive: -0.144 | – | – | inactive: -0.171 | – | inactive: -0.009 | inactive: -0.13 | inactive: 0.246 | – | – | inactive: 0.071 | – | – | inactive: -0.017 | inactive: 0.187 | – | inactive: -0.329 | – | inactive: -0.075
MAP4K2 (UniProt Q12851) | inactive: 0.073 | inactive: -0.071 | – | – | – | – | inactive: 0.113 | – | inactive: 0.021 | inactive: -0.034 | – | inactive: 0.094 | – | – | – | inactive: 0.218 | – | inactive: 0.079 | – | inactive: 0.043
MAP2K7 isoform 4 (UniProt O14733) | inactive: 0.013 | active: -0.301 | inactive: -0.043 | inactive: -0.013 | inactive: -0.025 | inactive: 0.051 | inactive: 0.022 | – | inactive: 0.032 | inactive: -0.068 | inactive: 0.003 | inactive: 0.009 | inactive: -0.031 | inactive: -0.026 | inactive: -0.019 | inactive: 0.016 | inactive: 0.175 | inactive: -0.008 | inactive: -0.01 | inactive: 0.009
MAPK8 isoform 3 (UniProt P45983) | inactive: 0.034 | inactive: -0.081 | inactive: 0.271 | inactive: -0.071 | inactive: 0.012 | inactive: -0.002 | inactive: 0.05 | – | inactive: -0.1 | inactive: -0.038 | inactive: -0.026 | inactive: -0.012 | inactive: -0.099 | inactive: 0.016 | inactive: 0.119 | inactive: 0.056 | active: 0.936 | inactive: -0.015 | inactive: 0.027 | inactive: 0.012
LUM (UniProt P51884) | inactive: -0.038 | – | inactive: -0.054 | inactive: 0.263 | inactive: 0.124 | inactive: 0.023 | inactive: -0.068 | – | inactive: -0.256 | inactive: -0.011 | inactive: 0.403 | inactive: 0.061 | inactive: -0.008 | – | inactive: -0.108 | – | inactive: 0.078 | inactive: 0.042 | inactive: 0.069 | inactive: -0.266
LUZP1 (UniProt Q86V48) | inactive: -0.136 | inactive: -0.074 | inactive: 0.08 | inactive: 0.114 | inactive: 0.019 | inactive: 0.139 | inactive: 0.113 | – | inactive: 0.079 | inactive: -0.128 | inactive: 0.136 | inactive: -0.182 | inactive: 0.184 | inactive: -0.029 | inactive: 0.031 | inactive: -0.062 | inactive: 0.275 | inactive: -0.005 | inactive: 0.05 | inactive: -0.091
MARCKSL1 (UniProt P49006) | inactive: 0.041 | inactive: 0 | inactive: -0.069 | inactive: 0.106 | inactive: 0.006 | inactive: -0.034 | inactive: -0.017 | – | inactive: 0.028 | inactive: 0.039 | inactive: 0.011 | inactive: 0.032 | inactive: -0.127 | inactive: 0.005 | inactive: 0.041 | inactive: 0.034 | inactive: -0.039 | inactive: -0.111 | inactive: 0.005 | inactive: -0.125
LRRC8C (UniProt Q8TDW0) | inactive: -0.156 | – | inactive: 0.312 | inactive: 0.024 | inactive: 0.009 | inactive: 0.123 | inactive: 0.271 | inactive: -0.036 | – | inactive: -0.142 | inactive: -0.107 | inactive: -0.128 | inactive: 0.222 | inactive: -0.032 | inactive: 0.031 | – | inactive: -0.141 | inactive: -0.006 | – | inactive: -0.027
LSG1 (UniProt Q9H089) | inactive: -0.168 | – | inactive: 0.067 | inactive: 0.002 | inactive: -0.472 | inactive: 0.276 | inactive: 0.386 | – | inactive: -0.018 | – | inactive: 0.077 | inactive: -0.06 | inactive: 0.37 | inactive: 0.093 | inactive: 0.09 | – | inactive: -0.118 | inactive: 0.188 | inactive: -0.027 | inactive: 0.003
MAD1L1 (UniProt Q9Y6D9) | inactive: -0.01 | inactive: 0.115 | inactive: 0.275 | inactive: -0.133 | inactive: -0.18 | inactive: 0.231 | inactive: 0.014 | – | inactive: 0.132 | – | inactive: -0.074 | inactive: -0.101 | inactive: -0.041 | inactive: 0.169 | inactive: 0.105 | inactive: -0.091 | inactive: -0.036 | inactive: 0 | inactive: 0.081 | inactive: 0.009
MAGI3 isoform 1 (UniProt Q5TCQ9) | inactive: -0.047 | inactive: -0.07 | – | inactive: 0.029 | – | – | inactive: 0 | – | inactive: -0.152 | inactive: -0.135 | – | inactive: -0.317 | inactive: 0.357 | inactive: -0.224 | – | inactive: 0.053 | inactive: -0.116 | – | inactive: -0.091 | –
LRRC8D (UniProt Q7L1W4) | inactive: -0.039 | – | inactive: 0.128 | inactive: 0.03 | inactive: -0.1 | inactive: 0.116 | inactive: 0.09 | inactive: -0.175 | inactive: 0.031 | inactive: -0.078 | inactive: -0.024 | inactive: -0.09 | inactive: 0.161 | inactive: 0.076 | inactive: 0.076 | – | inactive: 0.015 | inactive: -0.115 | inactive: -0.124 | inactive: 0.101
MAPKAPK2 (UniProt P49137) | inactive: 0.039 | inactive: -0.009 | inactive: 0.213 | inactive: -0.03 | inactive: -0.048 | inactive: -0.022 | inactive: -0.028 | – | inactive: -0.009 | inactive: 0.077 | inactive: 0.082 | inactive: 0.019 | inactive: -0.047 | inactive: 0.038 | inactive: 0.026 | inactive: -0.001 | active: 0.267 | inactive: -0.008 | inactive: 0.074 | inactive: 0.045

Record cards, from the list above. Order of values: log2 fold change [1] | log2 fold change [2] | log2 fold change [3] | log2 fold change [4] | log2 fold change [5] | log2 fold change [6] | log2 fold change [7] | log2 fold change [8] | log2 fold change [9] | log2 fold change [10] | log2 fold change [11] | log2 fold change [12] | log2 fold change [13] | log2 fold change [14] | log2 fold change [15] | log2 fold change [16] | log2 fold change [17] | log2 fold change [18] | log2 fold change [19] | log2 fold change [20]
LTO1 (UniProt Q8WV07) is listed with inactive: -0.028 | inactive: 0.037 | inactive: 0.028 | inactive: 0.011 | inactive: -0.017 | inactive: 0 | inactive: -0.028 | – | inactive: 0.041 | inactive: 0.021 | inactive: -0.042 | inactive: -0.009 | inactive: 0.245 | inactive: 0 | inactive: -0.121 | inactive: -0.04 | inactive: 0.061 | inactive: -0.021 | inactive: 0.101 | inactive: 0.027
LSM10 (UniProt Q969L4) is listed with inactive: -0.039 | inactive: -0.144 | – | – | inactive: -0.171 | – | inactive: -0.009 | inactive: -0.13 | inactive: 0.246 | – | – | inactive: 0.071 | – | – | inactive: -0.017 | inactive: 0.187 | – | inactive: -0.329 | – | inactive: -0.075
